Experimental data published in US20040028684A1, “Cancer diagnosis and assays for screening anti-cancer agents” (priority 2000, published 2004).
These are yes or no findings as the source states them, for the method shown. Some binding calls cover weakened binding; strength is not graded here.

The chains behind the UniProt entries cited, without tags or fusion partners. Where a name states a change or a piece, a line headed by the entry shows the natural chain unless it says otherwise.
UniProt Q9UBK9: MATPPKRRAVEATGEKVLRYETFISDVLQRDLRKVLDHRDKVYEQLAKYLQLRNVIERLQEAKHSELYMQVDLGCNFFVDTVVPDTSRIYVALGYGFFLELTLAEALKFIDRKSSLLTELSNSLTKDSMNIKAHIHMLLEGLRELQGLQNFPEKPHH
UniProt P04386: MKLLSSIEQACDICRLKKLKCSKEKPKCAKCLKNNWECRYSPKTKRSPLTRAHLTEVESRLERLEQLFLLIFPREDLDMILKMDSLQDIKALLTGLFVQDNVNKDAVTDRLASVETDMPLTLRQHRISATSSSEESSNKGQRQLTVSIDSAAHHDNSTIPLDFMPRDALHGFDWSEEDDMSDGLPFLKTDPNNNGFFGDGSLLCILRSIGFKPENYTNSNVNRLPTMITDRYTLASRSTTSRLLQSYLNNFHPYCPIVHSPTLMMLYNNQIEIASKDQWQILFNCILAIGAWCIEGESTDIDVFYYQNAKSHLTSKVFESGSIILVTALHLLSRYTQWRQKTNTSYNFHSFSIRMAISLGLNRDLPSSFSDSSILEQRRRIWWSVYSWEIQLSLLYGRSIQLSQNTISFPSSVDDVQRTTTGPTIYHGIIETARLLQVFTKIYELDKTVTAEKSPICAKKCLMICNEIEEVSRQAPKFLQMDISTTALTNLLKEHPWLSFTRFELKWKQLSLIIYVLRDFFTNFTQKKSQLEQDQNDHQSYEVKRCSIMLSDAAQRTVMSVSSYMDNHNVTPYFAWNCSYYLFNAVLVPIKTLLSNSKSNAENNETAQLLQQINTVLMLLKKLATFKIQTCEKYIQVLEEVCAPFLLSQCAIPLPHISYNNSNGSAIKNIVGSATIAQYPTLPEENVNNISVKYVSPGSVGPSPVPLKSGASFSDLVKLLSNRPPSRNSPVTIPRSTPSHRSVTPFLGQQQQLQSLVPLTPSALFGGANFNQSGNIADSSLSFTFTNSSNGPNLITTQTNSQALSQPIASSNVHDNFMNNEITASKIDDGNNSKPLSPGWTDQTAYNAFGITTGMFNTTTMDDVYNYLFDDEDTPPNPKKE

Target: STAP1 (Skp 2-associated protein one), cDNA clones from a HeLa cell library in pGAD-GH (human (HeLa cell library)) (UniProt Q9UBK9)
Experiment: yeast two-hybrid screen of a HeLa cDNA library (selection on minus Leu/Trp/His with 3-amino-triazole, galactosidase activity)

For “residues 101-423 of human Skp 2 cloned in the GAL4 DNA-binding domain vector pAS2-1 (from UniProt P04386 1-147; Q13309 101-423)”, the binding was “binds”.
